# Data published in the supplement of paper PMC11150407.
# Where a name gives a salt, the structure may show the parent alone. Among all 2,100 compounds or so, about 180 (8.6%) showed an effect of 50% or more. This is one part of the list.
# System: MOLM1 and UCSD/AML1 (averaged)
# Test: cell viability relative to DMSO control (POC); higher = less growth inhibition
# Details: 1 µM; 72 h
# Experimental: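 Primary viability screen in the 3q26 EVI1-high AML cell lines MOLM1 and UCSD/AML1 (1.5e3 cells/well, 384-well), compounds at 1 uM for 72 h. ATP CellTiter-Glo read-out given as percent of viable cells over DMSO control (POC), averaged over duplicates. DMSO was the negative control and 5 uM etoposide the positive control. This mapping covers the MicroSource Spectrum and Selleck anticancer libraries (drug names).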
row,Compound,cell viability
1,CN1[C@@H]2CC[C@H]1C[C@@H](OC(c1ccccc1)c1ccccc1)C2,101%
2,CC(=O)Nc1ccc(OCC(O)CNC(C)C)cc1 (centres undefined),99%
3,O=C(Nc1ccccc1)OCC(CN1CCCCC1)OC(=O)Nc1ccccc1 (centres undefined),90.9%
4,COc1c(O)cc(O)cc1O,98.8%
5,NC(=O)Nc1sc(-c2ccc(F)cc2)cc1C(N)=O,42.3%
6,COC(=O)c1c(C)c2c(c(C)c1O)OC(=O)c1c(C)c(Cl)c(O)c(Cl)c1O2,108%
7,Cc1ccc(C)c(OCCCC(C)(C)C(=O)O)c1,100%
8,O=C(CCCN1CCC(O)(c2ccc(Cl)cc2)CC1)c1ccc(F)cc1,102%
9,COc1cc2c(cc1OC)[C@@H]1Cc3ccc(OC)c(OC)c3CN1CC2,108%
10,NCCC(=O)c1ccccc1N,103%
11,NC(=O)c1ccc[n+]([C@@H]2O[C@H](COP(=O)([O-])OP(=O)(O)OC[C@H]3O[C@@H](n4cnc5c(N)ncnc54)[C@H](O)[C@@H]3O)[C@@H](O)[C@H]2O)c1,81.6%
12,NCC(=O)CCC(=O)O,110%
13,CN1CCC(CNc2ccc3ncc(-c4cccc(OC(F)(F)F)c4)n3n2)CC1 [SGI-1776 free base],80%
14,COc1c2ccoc2cc2oc(C)cc(=O)c12,104%
15,COc1ccc(CN(CCN(C)C)c2ncccn2)cc1,98.8%
16,NCCS,89.6%
17,COCCOC(=O)C1=C(C)NC(C)=C(C(=O)OC(C)C)C1c1cccc([N+](=O)[O-])c1 (centres undefined),97.7%
18,CN1C(C(=O)Nc2ccccn2)=C(O)c2ccccc2S1(=O)=O,98.7%
19,COc1c(C)c2c(c(O)c1C/C=C(\C)CCC(=O)OCCN1CCOCC1)C(=O)OC2 [Mycophenolate mofetil (CellCept)],53%
20,CC1(C)[C@@H](O)CC[C@]2(C)[C@H]3C(=O)C=C4[C@@H]5C[C@@](C)(C(=O)O)CC[C@]5(C)CC[C@@]4(C)[C@]3(C)CC[C@@H]12,95.5%
21,C[C@]12CCC(=O)C=C1C=C[C@@H]1[C@@H]2CC[C@@]2(C)[C@H]1CC[C@@]21CCC(=O)O1,83.2%
22,C[C@H]1COC2(CCN(c3nc(=O)c4cc(C(F)(F)F)cc([N+](=O)[O-])c4s3)CC2)O1 (racemic) [BTZ043 racemate],83.5%
23,"CCNC(=O)c1noc(-c2cc(C(C)C)c(O)cc2O)c1-c1ccc(CN2CCOCC2)cc1 [Luminespib (AUY-922, NVP-AUY922)]",2.13%
24,CNCc1ccc(-c2[nH]c3cc(F)cc4c3c2CCNC4=O)cc1,89.1%

row,Compound,cell viability
1,Cc1c(NC(C)C)c(=O)n(-c2ccccc2)n1C,96.4%
2,O=c1cc(-c2ccc(O)cc2)oc2cc(O[C@@H]3O[C@H](CO)[C@@H](O)[C@H](O)[C@H]3O)cc(O)c12,104%
3,Cc1cnc(-c2cnc(NCCNc3ccc(C#N)cn3)nc2-c2ccc(Cl)cc2Cl)[nH]1,133%
4,Cc1c(NC(=O)OC[C@@H]2COCCN2)cn2ncnc(Nc3ccc4c(cnn4Cc4cccc(F)c4)c3)c12,119%
5,CC(C[N+](C)(C)C)OC(N)=O (centres undefined),98.3%
6,CC(C)c1cccc(=O)c(O)c1,93.6%
7,CCCCCCCCCCOc1cc2c(O)c(C(=O)OCC)cnc2cc1OCC,98.9%
8,COc1ccc([C@@H]2Sc3ccccc3N(CCN(C)C)C(=O)[C@@H]2OC(C)=O)cc1,95.8%
9,Cc1cn([C@H]2C[C@H](N=[N+]=[N-])[C@@H](CO)O2)c(=O)[nH]c1=O,102%
10,O=C1N=C(O)NC1(c1ccccc1)c1ccccc1,110%
11,COc1cc(NS(=O)(=O)c2ccc(N)cc2)nc(OC)n1,98.3%
12,CC[N+](CC)(CC(=O)Nc1c(C)cccc1C)Cc1ccccc1,87.4%
13,CC1(C)O[C@@H]2[C@@H](CO[C@@]3(COS(N)(=O)=O)OC(C)(C)O[C@@H]23)O1,88.2%
14,COc1cc2ccc(=O)oc2cc1O,94.7%
15,O=C(O)CCCC[C@@H]1CCSS1,109%
16,CC(=O)O[C@H]1C[C@@H](O)C(C)(C)[C@@H]2C[C@@H](OC(C)=O)[C@]3(C)[C@H](CC[C@@]4(C)[C@@H](c5ccoc5)OC(=O)[C@H]5O[C@@]534)[C@@]12C,104%
17,NC(=O)N1c2ccccc2CC(=O)c2ccccc21,94.4%
18,Oc1nc(-c2ccc(C(F)(F)F)cc2)nc2c1CSCC2,110%
19,CC(C)Cn1cnc2c(N)nc3ccccc3c21 [Imiquimod],47.9%
20,CC(=O)OCC(=O)[C@@]1(O)[C@H](OC(C)=O)C[C@H]2[C@@H]3CCC4=CC(=O)C=C[C@]4(C)[C@@]3(F)[C@@H](O)C[C@@]21C,78.4%
21,O=C1OC(=O)[C@H]2[C@@H]1[C@@H]1CC[C@H]2O1,104%
22,C[C@]12CCC3c4ccc(OS(=O)(=O)O)cc4CCC3C1CC[C@H]2O (some centres undefined),98.1%
23,CC(C)NC(=N)NC(=N)Nc1ccc(Cl)cc1,97.6%
24,CCCC(=O)O[C@]1(C(=O)CO)CC[C@H]2[C@@H]3CCC4=CC(=O)CC[C@]4(C)[C@H]3[C@@H](O)C[C@@]21C,83.5%

# 2 entries from above, tab-delimited:
row	Compound	cell viability
1	Cc1c(NC(C)C)c(=O)n(-c2ccccc2)n1C	96.4%
2	O=c1cc(-c2ccc(O)cc2)oc2cc(O[C@@H]3O[C@H](CO)[C@@H](O)[C@H](O)[C@H]3O)cc(O)c12	104%

# (next part)

row,Compound,cell viability
1,CC1(C)S[C@@H]2[C@H](NC(=O)COc3ccccc3)C(=O)N2[C@H]1C(=O)O,110%
2,COc1ccc2c3c1O[C@H]1C[C@@H](O)C=C[C@@]31CCN(C)C2,104%
3,O=c1[nH]c(=O)n([C@H]2C[C@H](O)[C@@H](CO)O2)cc1C(F)(F)F,115%
4,Cc1nnc(SCC2=C(C(=O)O)N3C(=O)[C@@H](NC(=O)Cn4cnnn4)[C@H]3SC2)s1,102%
5,Cn1cncc1[C@@](N)(c1ccc(Cl)cc1)c1ccc2c(c1)c(-c1cccc(Cl)c1)cc(=O)n2C [Tipifarnib (Zarnestra)],36.5%
6,S=c1[nH]cnc2nc[nH]c12,96.5%
7,S=c1[nH]cnc2nc[nH]c12 [Mercaptopurine],93.6%
8,COc1cc2c(cc1OC)[C@@H]1C(=O)c3ccc4c(c3O[C@@H]1CO2)C=CC(C)(C)O4,80%
9,CCCCCCCCNC(C)C(O)c1ccc(SC(C)C)cc1 (centres undefined),98.9%
10,C[C@H]1O[C@@H](O[C@H]2[C@@H](O)C[C@H](O[C@H]3[C@@H](O)C[C@H](O[C@H]4CC[C@@]5(C)[C@H](CC[C@@H]6[C@@H]5CC[C@]5(C)[C@@H](C7=CC(=O)OC7)CC[C@]65O)C4)O[C@@H]3C)O[C@@H]2C)C[C@H](O)[C@@H]1O,2.44%
11,C=C(C)[C@@H]1CC[C@]2(C)CC[C@]3(C)[C@H](CC[C@@H]4[C@@]5(C)CC[C@H](O)C(C)(C)[C@@H]5CC[C@]43C)[C@@H]12,105%
12,O=C(NCCCNc1nc(Nc2cccc(NC(=O)N3CCCC3)c2)ncc1I)c1cccs1,47.6%
13,CC1=CC2C(CC1=O)C(C)=CCC2C(C)C (centres undefined),92.7%
14,NCCCCN,94.1%
15,S=P(N1CC1)(N1CC1)N1CC1,86%
16,CC(C)[C@@H]1CC[C@@H](C)C[C@H]1OC(=O)c1ccccc1,109%
17,CC(=O)O[C@H]1CC[C@]2(C)[C@H]3CC=C4[C@@H]5CC(C)(C)CC[C@]5(C(=O)O)CC[C@@]4(C)[C@]3(C)CC[C@H]2C1(C)C,102%
18,Cc1cc(O)cc(=O)o1,112%
19,COC(=O)[C@@H]1OC(=O)C2OC23[C@@]1(C)CCC1[C@]2(C)C(C[C@@H](O)[C@]13C)C(C)(C)[C@H](OC(C)=O)C[C@@H]2OC(C)=O (some centres undefined),111%
20,COc1ccc(C(C)=O)c(O)c1,103%
21,COC(=O)/C(=C1/OC(=O)C(c2ccccc2)=C1O)c1ccccc1,102%
22,CC(C)[C@H]1CC[C@H](C(=O)N[C@H](Cc2ccccc2)C(=O)O)CC1,89.5%
23,COc1c(O)cc2c(c1O)[C@@H]1O[C@H](CO)[C@@H](O)[C@H](O)[C@H]1OC2=O,101%
24,COc1cc(-c2coc3cc(OCc4ccccc4)c(OC)c(O)c3c2=O)cc(O)c1OC,95.2%

row,Compound,cell viability
1,COc1ccccc1OCCNCC(O)COc1cccc2[nH]c3ccccc3c12 (centres undefined),88.8%
2,COc1cc(N2CCC(N3CCN(C)CC3)CC2)ccc1Nc1ncc(Cl)c(Nc2ccccc2S(=O)(=O)C(C)C)n1,30.7%
3,CC1CCc2cc(F)cc3c(=O)c(C(=O)O)cn1c23 (centres undefined),99.7%
4,COc1cc2c(cc1OC)-c1c(oc3cc(O)cc(O)c3c1=O)CO2,103%
5,CCCCOc1ccc(OCCCN2CCOCC2)cc1,97.5%
6,CCOC(=O)C1=C(C)NC(C)=C(C(=O)OC)C1c1cccc([N+](=O)[O-])c1 (centres undefined),89.3%
7,CC1(C)S[C@@H]2[C@H](N3C(=O)[C@@H](c4ccccc4)NC3(C)C)C(=O)N2[C@H]1C(=O)O,98.2%
8,CC(C)=CCc1c(O)cc2occ(-c3ccc4c(c3)OCO4)c(=O)c2c1O,100%
9,CCn1cc(C(=O)O)c(=O)c2cc(F)c(N3CCNCC3)cc21,99.5%
10,O=c1c(O)c(-c2ccc(O)c(O)c2)oc2c(O[C@@H]3O[C@H](CO)[C@@H](O)[C@H](O)[C@H]3O)c(O)cc(O)c12,91.3%
11,CNC(=O)c1ccccc1Sc1ccc2c(/C=C/c3ccccn3)n[nH]c2c1 [Axitinib],19.1%
12,CC(CN1c2ccccc2Sc2ccccc21)N(C)C (centres undefined),99.4%
13,NS(=O)(=O)c1cc2c(cc1C(F)(F)F)NC(Cc1ccccc1)NS2(=O)=O (centres undefined),99.4%
14,O=C(NC1CCNCC1)c1n[nH]cc1NC(=O)c1c(Cl)cccc1Cl,13.3%
15,CC[C@H](Nc1ncnc2[nH]cnc12)c1nc2cccc(F)c2c(=O)n1-c1ccccc1,55.9%
16,CN(C)CCCC1(c2ccc(F)cc2)OCc2cc(C#N)ccc21 (centres undefined),115%
17,CCCC(CCC)C(=O)O [Valproic acid sodium salt (Sodium valproate)],104%
18,CCCC(CCC)C(=O)O,96.7%
19,Cc1onc(-c2ccccc2)c1C(=O)N[C@@H]1C(=O)N2[C@@H]1SC(C)(C)[C@@H]2C(=O)O,91.8%
20,OCC(O)CN1CCN(c2ccccc2)CC1 (centres undefined),103%
21,COc1cc2c(cc1OC)C(=O)OC2,103%
22,COC1=CC(=O)C[C@@H](C)[C@]12Oc1c(Cl)c(OC)cc(OC)c1C2=O,97.8%

# Quoted at random: 2 records from the list.
row,Compound,cell viability
17,CCCC(CCC)C(=O)O [Valproic acid sodium salt (Sodium valproate)],104%
5,CCCCOc1ccc(OCCCN2CCOCC2)cc1,97.5%
